Data on 39 targets can be found in the supplement of paper PMC10849652.

Amino acid sequences for entries named in this document (tags omitted). A change or cut given only in a name is not applied to a line headed by its entry.
UniProt Q3ZCQ8: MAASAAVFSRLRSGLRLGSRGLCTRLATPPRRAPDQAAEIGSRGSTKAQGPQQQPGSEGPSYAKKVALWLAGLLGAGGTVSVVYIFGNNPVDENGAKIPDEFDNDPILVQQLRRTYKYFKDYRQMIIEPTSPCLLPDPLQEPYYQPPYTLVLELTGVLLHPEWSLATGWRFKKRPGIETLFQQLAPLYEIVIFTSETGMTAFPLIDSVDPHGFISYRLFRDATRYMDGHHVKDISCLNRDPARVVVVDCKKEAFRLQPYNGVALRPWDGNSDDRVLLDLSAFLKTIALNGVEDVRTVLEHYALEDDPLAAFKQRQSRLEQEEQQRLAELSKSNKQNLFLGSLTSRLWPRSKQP
UniProt P15923: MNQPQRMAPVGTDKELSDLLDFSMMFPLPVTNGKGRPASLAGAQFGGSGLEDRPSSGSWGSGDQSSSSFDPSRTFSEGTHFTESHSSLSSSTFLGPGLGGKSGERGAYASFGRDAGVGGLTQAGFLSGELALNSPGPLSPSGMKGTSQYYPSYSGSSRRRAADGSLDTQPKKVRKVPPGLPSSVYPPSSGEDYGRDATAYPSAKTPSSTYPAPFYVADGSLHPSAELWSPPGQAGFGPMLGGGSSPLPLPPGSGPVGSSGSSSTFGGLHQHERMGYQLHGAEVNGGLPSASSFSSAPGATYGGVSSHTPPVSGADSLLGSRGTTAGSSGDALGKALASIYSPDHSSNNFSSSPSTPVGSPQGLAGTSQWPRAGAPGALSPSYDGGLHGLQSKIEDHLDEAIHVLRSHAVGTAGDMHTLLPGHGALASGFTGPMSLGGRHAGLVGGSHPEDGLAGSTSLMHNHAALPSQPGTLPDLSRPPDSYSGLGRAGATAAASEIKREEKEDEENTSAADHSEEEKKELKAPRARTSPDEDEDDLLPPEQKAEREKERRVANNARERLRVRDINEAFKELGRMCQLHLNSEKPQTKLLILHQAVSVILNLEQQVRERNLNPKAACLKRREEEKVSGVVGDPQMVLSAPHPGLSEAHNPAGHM
UniProt Q96FV9: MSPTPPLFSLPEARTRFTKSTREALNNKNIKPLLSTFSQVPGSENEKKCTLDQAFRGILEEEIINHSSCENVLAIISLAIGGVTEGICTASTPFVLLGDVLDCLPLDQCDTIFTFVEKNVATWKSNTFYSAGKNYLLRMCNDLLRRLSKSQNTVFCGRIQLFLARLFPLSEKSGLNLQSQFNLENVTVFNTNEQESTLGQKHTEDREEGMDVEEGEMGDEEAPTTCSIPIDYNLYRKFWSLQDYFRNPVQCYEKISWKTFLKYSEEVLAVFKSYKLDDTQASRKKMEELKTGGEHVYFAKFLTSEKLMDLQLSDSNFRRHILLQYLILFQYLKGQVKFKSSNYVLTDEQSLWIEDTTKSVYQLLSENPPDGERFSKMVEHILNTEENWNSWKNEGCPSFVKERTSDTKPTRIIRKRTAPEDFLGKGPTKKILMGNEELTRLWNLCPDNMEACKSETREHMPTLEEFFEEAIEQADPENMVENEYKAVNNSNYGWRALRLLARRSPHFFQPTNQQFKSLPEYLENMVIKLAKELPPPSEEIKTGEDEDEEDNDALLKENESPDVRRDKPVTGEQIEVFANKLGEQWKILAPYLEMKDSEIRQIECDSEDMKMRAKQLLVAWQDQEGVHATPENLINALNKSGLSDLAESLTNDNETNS
UniProt Q8NI27: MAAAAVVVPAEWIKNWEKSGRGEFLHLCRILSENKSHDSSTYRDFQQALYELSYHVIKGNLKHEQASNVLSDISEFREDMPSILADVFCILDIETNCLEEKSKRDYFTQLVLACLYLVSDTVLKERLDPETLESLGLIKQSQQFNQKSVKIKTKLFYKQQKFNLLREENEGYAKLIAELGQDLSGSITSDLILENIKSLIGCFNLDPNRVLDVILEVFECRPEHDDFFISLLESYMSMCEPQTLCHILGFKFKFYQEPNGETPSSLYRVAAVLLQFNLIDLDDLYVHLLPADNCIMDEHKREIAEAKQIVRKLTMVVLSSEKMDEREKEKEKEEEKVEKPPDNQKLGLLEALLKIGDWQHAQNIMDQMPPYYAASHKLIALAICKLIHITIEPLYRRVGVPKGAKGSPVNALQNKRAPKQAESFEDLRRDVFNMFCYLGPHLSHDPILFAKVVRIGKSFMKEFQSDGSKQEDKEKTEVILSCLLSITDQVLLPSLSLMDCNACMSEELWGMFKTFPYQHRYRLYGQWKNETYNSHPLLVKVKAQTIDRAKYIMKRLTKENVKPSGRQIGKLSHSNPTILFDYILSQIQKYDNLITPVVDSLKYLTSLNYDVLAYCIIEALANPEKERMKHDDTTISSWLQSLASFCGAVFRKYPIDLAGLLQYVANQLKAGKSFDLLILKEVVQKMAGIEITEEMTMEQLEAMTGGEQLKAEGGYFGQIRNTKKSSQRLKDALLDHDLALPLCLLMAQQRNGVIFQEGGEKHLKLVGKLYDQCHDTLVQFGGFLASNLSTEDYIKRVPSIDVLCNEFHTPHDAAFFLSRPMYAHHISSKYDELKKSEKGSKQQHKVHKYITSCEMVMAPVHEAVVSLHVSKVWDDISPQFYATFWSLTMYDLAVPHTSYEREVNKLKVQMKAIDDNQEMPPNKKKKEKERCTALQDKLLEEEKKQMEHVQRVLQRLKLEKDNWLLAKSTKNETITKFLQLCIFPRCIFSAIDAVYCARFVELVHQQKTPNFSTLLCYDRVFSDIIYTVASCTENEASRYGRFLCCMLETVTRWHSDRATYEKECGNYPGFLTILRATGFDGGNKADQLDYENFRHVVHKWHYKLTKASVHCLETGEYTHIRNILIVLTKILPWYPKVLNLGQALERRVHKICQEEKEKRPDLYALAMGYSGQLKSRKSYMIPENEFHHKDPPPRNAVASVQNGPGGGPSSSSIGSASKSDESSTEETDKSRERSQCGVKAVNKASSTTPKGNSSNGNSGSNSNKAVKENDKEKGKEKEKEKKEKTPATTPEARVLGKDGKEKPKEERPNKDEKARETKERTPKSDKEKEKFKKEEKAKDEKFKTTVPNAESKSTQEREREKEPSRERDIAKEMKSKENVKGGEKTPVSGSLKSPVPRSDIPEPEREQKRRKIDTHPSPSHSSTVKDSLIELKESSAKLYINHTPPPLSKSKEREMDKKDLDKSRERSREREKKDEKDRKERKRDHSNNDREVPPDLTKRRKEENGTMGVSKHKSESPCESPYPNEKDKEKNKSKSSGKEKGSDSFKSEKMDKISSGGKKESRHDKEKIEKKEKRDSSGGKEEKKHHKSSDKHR
UniProt Q8IYQ7: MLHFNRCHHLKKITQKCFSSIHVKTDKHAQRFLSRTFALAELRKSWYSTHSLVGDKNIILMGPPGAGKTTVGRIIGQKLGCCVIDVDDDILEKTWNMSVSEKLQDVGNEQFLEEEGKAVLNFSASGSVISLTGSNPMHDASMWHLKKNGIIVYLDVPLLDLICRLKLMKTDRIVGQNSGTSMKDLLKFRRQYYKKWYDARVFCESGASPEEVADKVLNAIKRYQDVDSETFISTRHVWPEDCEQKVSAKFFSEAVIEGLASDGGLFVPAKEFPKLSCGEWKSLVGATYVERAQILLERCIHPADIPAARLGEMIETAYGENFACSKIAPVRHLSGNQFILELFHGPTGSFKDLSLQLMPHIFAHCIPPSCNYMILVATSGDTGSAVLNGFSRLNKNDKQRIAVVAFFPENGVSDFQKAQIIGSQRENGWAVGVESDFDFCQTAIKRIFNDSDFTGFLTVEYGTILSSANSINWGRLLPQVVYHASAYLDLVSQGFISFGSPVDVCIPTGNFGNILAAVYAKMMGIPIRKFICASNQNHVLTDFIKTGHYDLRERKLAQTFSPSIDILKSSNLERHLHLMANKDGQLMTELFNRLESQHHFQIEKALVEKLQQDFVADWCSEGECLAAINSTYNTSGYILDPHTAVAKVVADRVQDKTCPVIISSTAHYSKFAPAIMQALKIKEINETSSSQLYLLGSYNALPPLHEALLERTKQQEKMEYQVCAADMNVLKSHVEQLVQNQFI
UniProt P02787, whole entry, looked up: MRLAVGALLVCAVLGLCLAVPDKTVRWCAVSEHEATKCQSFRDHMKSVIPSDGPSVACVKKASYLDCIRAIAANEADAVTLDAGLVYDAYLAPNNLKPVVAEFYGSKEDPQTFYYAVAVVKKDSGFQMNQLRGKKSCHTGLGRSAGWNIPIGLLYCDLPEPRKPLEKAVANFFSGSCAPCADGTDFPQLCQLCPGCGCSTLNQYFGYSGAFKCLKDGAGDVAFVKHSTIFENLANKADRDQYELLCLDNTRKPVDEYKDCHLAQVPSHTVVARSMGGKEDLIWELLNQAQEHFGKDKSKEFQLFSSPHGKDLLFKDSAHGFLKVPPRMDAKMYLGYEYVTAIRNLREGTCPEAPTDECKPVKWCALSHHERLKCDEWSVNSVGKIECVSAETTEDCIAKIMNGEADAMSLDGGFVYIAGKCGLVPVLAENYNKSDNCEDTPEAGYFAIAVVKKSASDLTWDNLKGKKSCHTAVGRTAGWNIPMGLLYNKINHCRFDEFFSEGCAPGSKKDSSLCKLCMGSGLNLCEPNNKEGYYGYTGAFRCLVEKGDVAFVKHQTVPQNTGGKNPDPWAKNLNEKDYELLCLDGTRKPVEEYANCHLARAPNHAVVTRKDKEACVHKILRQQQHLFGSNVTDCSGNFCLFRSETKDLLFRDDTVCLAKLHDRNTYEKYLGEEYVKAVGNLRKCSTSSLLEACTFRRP
UniProt Q86W42: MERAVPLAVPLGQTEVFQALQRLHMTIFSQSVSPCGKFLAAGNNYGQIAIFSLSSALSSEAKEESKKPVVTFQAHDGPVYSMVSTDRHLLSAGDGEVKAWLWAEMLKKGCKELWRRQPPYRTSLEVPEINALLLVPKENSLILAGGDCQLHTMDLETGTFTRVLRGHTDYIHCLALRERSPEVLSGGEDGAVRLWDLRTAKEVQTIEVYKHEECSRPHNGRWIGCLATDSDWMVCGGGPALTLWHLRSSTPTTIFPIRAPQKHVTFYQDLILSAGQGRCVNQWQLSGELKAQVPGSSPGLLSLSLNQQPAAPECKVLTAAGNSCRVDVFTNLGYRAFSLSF
UniProt Q9NPL8: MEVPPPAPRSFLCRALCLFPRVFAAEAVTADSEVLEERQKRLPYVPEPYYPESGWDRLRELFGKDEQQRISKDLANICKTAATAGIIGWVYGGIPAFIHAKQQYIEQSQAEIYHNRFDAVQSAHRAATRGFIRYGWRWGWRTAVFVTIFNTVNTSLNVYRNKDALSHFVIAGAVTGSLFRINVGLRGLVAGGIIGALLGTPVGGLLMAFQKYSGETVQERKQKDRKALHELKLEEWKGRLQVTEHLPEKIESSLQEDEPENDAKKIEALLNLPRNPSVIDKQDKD
UniProt O00142: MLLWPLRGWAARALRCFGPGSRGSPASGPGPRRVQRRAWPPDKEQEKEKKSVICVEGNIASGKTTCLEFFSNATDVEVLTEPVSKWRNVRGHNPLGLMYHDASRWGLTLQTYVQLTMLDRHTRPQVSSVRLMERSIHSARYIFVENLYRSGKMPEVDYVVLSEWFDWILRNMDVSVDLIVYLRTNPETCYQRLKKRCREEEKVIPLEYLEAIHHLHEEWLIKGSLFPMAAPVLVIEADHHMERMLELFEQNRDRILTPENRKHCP
UniProt Q8WVM0: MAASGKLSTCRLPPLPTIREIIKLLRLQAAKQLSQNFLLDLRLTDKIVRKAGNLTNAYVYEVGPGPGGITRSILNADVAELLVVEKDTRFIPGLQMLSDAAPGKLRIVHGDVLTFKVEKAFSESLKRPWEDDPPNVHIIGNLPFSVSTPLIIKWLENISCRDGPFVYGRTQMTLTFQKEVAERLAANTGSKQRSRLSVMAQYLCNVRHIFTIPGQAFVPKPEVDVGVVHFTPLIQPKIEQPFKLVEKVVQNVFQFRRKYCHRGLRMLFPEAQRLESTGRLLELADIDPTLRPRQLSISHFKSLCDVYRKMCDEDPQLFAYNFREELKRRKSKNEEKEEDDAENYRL
UniProt Q9Y5J9: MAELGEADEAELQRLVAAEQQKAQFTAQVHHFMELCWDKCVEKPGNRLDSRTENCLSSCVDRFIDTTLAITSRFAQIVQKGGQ
UniProt Q9BZK7: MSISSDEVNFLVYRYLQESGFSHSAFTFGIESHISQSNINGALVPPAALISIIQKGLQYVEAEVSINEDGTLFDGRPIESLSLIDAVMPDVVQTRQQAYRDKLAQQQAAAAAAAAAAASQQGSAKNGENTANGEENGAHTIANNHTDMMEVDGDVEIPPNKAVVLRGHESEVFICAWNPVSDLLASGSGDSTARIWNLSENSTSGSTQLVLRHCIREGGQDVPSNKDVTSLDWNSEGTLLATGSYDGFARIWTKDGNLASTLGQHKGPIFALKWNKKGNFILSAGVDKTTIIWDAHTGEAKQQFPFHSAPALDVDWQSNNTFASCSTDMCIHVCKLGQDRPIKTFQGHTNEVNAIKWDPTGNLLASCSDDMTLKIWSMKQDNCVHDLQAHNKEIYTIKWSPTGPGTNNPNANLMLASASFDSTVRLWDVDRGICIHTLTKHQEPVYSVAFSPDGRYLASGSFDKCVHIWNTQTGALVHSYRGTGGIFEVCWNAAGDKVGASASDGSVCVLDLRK

Some of the results follow.

Compound in one experiment: CC(C)N(C[C@H]1O[C@@H](n2cnc3c(N)ncnc32)[C@H](O)[C@@H]1O)[C@H]1C[C@@H](CCc2nc3cc(C(C)(C)C)ccc3[nH]2)C1 [pinometostat]
Kind of experiment: log2 fold change, soluble protein after heating vs DMSO (PISA); higher = thermal stabilisation; K562 cells, 10 uM, 30 min; active = over 0.2 and 3.5 SD of the protein, either way, in both replicates (recomputed). The procedure, abridged:
(§1)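 Soluble protein was quantified by TMTpro 16plex LC-MS/MS after channel sums were equalised. It was obtained as the supernatant after 21,000xg for 90 min from pooled aliquots of K562 cells (2×10^6 cells/mL, 10 μM compound, 30 min) heated for 3 min across 48°C-58°C and extracted in PBS with 0.5% NP-40 at 4°C. Thermal stability values are relative to control samples and come from duplicates. They are given as log2 fold changes.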
As for TJAP1 (UniProt Q5JTD0), the log2 fold change was inactive: -0.012.

As to TCEA1 (UniProt P23193), the log2 fold change was inactive: -0.068.

For the target TIMM50 isoform 2 (UniProt Q3ZCQ8), the log2 fold change is inactive: -0.023.

Take THUMPD1 (UniProt Q9NXG2): the log2 fold change was inactive: -0.059.

Turning to THBS1 (UniProt P07996), the log2 fold change is inactive: -0.123.

TCIRG1 (UniProt Q13488): the log2 fold change is inactive: 0.337.

For the target TCF3 (UniProt P15923), the log2 fold change was inactive: 0.032.

For THOC1 (UniProt Q96FV9), the log2 fold change is inactive: 0.121.

Consider THOC2 (UniProt Q8NI27), for which the log2 fold change is inactive: 0.162.

THNSL1 (UniProt Q8IYQ7): the log2 fold change is inactive: -0.003.

Take TBC1D22B (UniProt Q9NU19): the log2 fold change was inactive: -0.052.

As to TLCD4 (UniProt Q96MV1), the log2 fold change is inactive: -0.085.

For THOC7 (UniProt Q6I9Y2), the log2 fold change was inactive: 0.021.

Consider TKFC (UniProt Q3LXA3), for which the log2 fold change was inactive: -0.057.

With TGFBR3 (UniProt Q03167), the log2 fold change was inactive: 0.088.

Consider TKT isoform 2 (UniProt P29401), for which the log2 fold change is inactive: -0.056.

In the case of TDRKH (UniProt Q9Y2W6), the log2 fold change is inactive: 0.016.

TGOLN2 isoform 7 (UniProt O43493): the log2 fold change was inactive: 0.029.

In the case of TBCC (UniProt Q15814), the log2 fold change is inactive: -0.016.

As for TF (UniProt P02787), the log2 fold change is inactive: -0.051.

With TDP2 isoform 2 (UniProt O95551), the log2 fold change is inactive: 0.025.

In the case of TERF2 (UniProt Q15554), the log2 fold change is inactive: 0.163.

With THOC6 (UniProt Q86W42), the log2 fold change is inactive: -0.02.

As to TBCB (UniProt Q99426), the log2 fold change was inactive: -0.004.

As to TIMMDC1 (UniProt Q9NPL8), the log2 fold change was inactive: -0.049.

On to TBCE (UniProt Q15813), for which the log2 fold change is inactive: 0.246.

For TK2 isoform 6 (UniProt O00142), the log2 fold change was inactive: 0.022.

Regarding TIMM23 (UniProt O14925), the log2 fold change is inactive: -0.067.

Take TET1 (UniProt Q8NFU7): the log2 fold change was inactive: -0.089.

TCP1 (UniProt P17987): the log2 fold change was inactive: -0.02.

Regarding TBL1X (UniProt O60907), the log2 fold change is inactive: 0.002.

Turning to TFB1M (UniProt Q8WVM0), the log2 fold change was inactive: 0.252.

TBL3 (UniProt Q12788): the log2 fold change was inactive: 0.169.

TIMM8B (UniProt Q9Y5J9): the log2 fold change is inactive: -0.08.

As to TBC1D4 (UniProt O60343), the log2 fold change is inactive: -0.025.

Turning to TGM2 (UniProt P21980), the log2 fold change was inactive: -0.024.

For the target TBL1XR1 (UniProt Q9BZK7), the log2 fold change is inactive: -0.045.

For the target TESC (UniProt Q96BS2), the log2 fold change is inactive: -0.009.

On to TCF12 isoform 3 (UniProt Q99081), for which the log2 fold change is inactive: -0.138.

Compound in another experiment: CC1=C(C(CC(=O)N1)C2=CC=C(C=C2)C(F)(F)F)C(=O)NC3=C(C=C4C(=C3)C=NN4)F
Described as above. The essentials:
as §1
On to TJAP1 (UniProt Q5JTD0), for which the log2 fold change is inactive: 0.016.

Regarding TCEA1 (UniProt P23193), the log2 fold change is inactive: 0.022.

Turning to TIMM50 isoform 2 (UniProt Q3ZCQ8), the log2 fold change was inactive: -0.021.

On to THUMPD1 (UniProt Q9NXG2), for which the log2 fold change is inactive: 0.029.

Turning to THBS1 (UniProt P07996), the log2 fold change was inactive: 0.091.

In the case of TCIRG1 (UniProt Q13488), the log2 fold change is inactive: 0.182.

With TCF3 (UniProt P15923), the log2 fold change was inactive: -0.022.

Consider THOC1 (UniProt Q96FV9), for which the log2 fold change is inactive: 0.

As to THOC2 (UniProt Q8NI27), the log2 fold change was inactive: -0.031.

Take THNSL1 (UniProt Q8IYQ7): the log2 fold change was inactive: -0.052.

Consider TBC1D22B (UniProt Q9NU19), for which the log2 fold change is inactive: -0.001.

Take TLCD4 (UniProt Q96MV1): the log2 fold change was inactive: -0.043.

For the target THOC7 (UniProt Q6I9Y2), the log2 fold change was inactive: 0.008.

Take TKFC (UniProt Q3LXA3): the log2 fold change is inactive: -0.003.

As to TGFBR3 (UniProt Q03167), the log2 fold change was inactive: 0.039.

As for TKT isoform 2 (UniProt P29401), the log2 fold change was inactive: 0.018.

With TDRKH (UniProt Q9Y2W6), the log2 fold change is inactive: -0.027.

As to TGOLN2 isoform 7 (UniProt O43493), the log2 fold change is inactive: -0.012.

TBCC (UniProt Q15814): the log2 fold change was inactive: -0.029.

On to TF (UniProt P02787), for which the log2 fold change is inactive: -0.031.

As for TDP2 isoform 2 (UniProt O95551), the log2 fold change was inactive: 0.031.

On to TERF2 (UniProt Q15554), for which the log2 fold change is inactive: 0.

With THOC6 (UniProt Q86W42), the log2 fold change is inactive: -0.02.

For the target TBCB (UniProt Q99426), the log2 fold change is inactive: 0.003.

Take TIMMDC1 (UniProt Q9NPL8): the log2 fold change is inactive: 0.025.

On to TBCE (UniProt Q15813), for which the log2 fold change was inactive: 0.057.

As for TK2 isoform 6 (UniProt O00142), the log2 fold change is inactive: -0.026.

As for TIMM23 (UniProt O14925), the log2 fold change is inactive: -0.013.

For the target TET1 (UniProt Q8NFU7), the log2 fold change is inactive: 0.146.

Regarding TCP1 (UniProt P17987), the log2 fold change is inactive: 0.034.

With TBL1X (UniProt O60907), the log2 fold change was inactive: 0.027.

For the target TFB1M (UniProt Q8WVM0), the log2 fold change was inactive: 0.008.

Turning to TBL3 (UniProt Q12788), the log2 fold change is inactive: 0.007.

For the target TIMM8B (UniProt Q9Y5J9), the log2 fold change is inactive: 0.132.

Take TBC1D4 (UniProt O60343): the log2 fold change was inactive: 0.045.

Consider TGM2 (UniProt P21980), for which the log2 fold change is inactive: 0.025.

As for TBL1XR1 (UniProt Q9BZK7), the log2 fold change is inactive: -0.001.

Consider TESC (UniProt Q96BS2), for which the log2 fold change was inactive: -0.011.

With TCF12 isoform 3 (UniProt Q99081), the log2 fold change is inactive: 0.051.
